Data as given in the supplement of paper PMC7024190.
Some of the results follow. This data set is noisy: repeats of one test often differ as much as different tests do.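 Human embryonic kidney cells were transiently transfected with a plasmid bearing a Renilla luciferase gene under the HSV-TK promoter. This first-round screen tests roughly ten thousand compounds for ones that increase reporter output.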

These compounds were tested on HEK 293FT (assay: log relative Renilla luciferase luminescence (reporter expression vs reference, reference not stated) (log (base not stated)); higher = higher recombinant reporter expression). Settings: 10 µM; time after transfection 48 h.
Description: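 HEK 293FT cells transiently transfected with pRL-TK (Renilla luciferase) were treated with compounds at 10 uM and luminescence was read about 42 h later. Values are log relative Renilla luminescence (log base and reference not stated). Single-pass screen; 2080 natural products library.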
With `CC(=O)CC/C=C(\C)CC/C=C(\C)CC/C=C(\C)CC/C=C(\C)CC/C=C(\C)CC/C=C(\C)CC/C=C(\C)CCC=C(C)C` [Bombiprenone] the log was -0.138.
`CC(=O)c1cc(O)c2c(c1)C=CC(C)(C)O2` [De-O-methylacetovanillochromene] showed a log of -0.0599.
For `C=C[C@H](O)C#CC#C/C=C/CO` [(S,E)-Deca-2,9-dien-4,6-diyn-1,8-diol], the log was -0.115.
`O=c1cc(-c2ccc(O)cc2)oc2cc(O)cc(O)c12` [Apigenin] was tested, and the log was 0.11.
In the case of `O=C(/C=C/c1ccc(O)c(O)c1)O[C@H](Cc1ccc(O)c(O)c1)C(=O)O` [Rosmarinic acid], the log is reported as -0.16.
`COc1cc2oc(=O)ccc2cc1[C@@H]1OC(=O)[C@@]2(C)O[C@@H]12` [Micromelin] gave a log of 0.0396.
Work on `C=C1C(=O)O[C@@H]2/C=C(\C)CC/C=C(\C)CC[C@@H]12` [Costunolide] yielded a log of 0.041.
For `O=c1c(O)c(-c2ccc(O)cc2)oc2cc(O)cc(O)c12` [Kaempferol], the log was 0.0366.
`C[C@@H]1CC[C@@]23CC[C@]4(C)[C@@](C=CC5[C@@]6(C)CC[C@H](O)C(C)(C)C6CC[C@]54C)(OC2=O)C3[C@H]1C` (stereo partly drawn) [3-Hydroxy-11-ursen-28,13-olide] gave a log of -0.321.
`CC#Cc1ccc(-c2ccc(C(O)CO)s2)s1` (stereo not drawn) [Arctinol B] gave a log of -0.238.
Compound `COc1ccc(-c2oc3c(OC)c(O)cc(O)c3c(=O)c2O)cc1` [Prudomestin] has a log of -0.426.
`C=C1C(=O)O[C@H]2[C@H]1CC/C(C)=C/CC[C@@]1(C)O[C@@H]21` [Parthenolide] gave a log of -0.596.
With `COc1cc2c(c(OC)c1OC)-c1c(cc3c(c1OC)OCO3)C[C@H](C)[C@](C)(O)C2` [Gomisin A] the log was -0.42.
In the case of `CC(=O)O[C@H]1[C@H](OC(C)=O)[C@]2(C)O[C@]3(CC[C@]2(C)[C@H]2[C@H](OC(=O)C(C)C)CC=C(C)[C@]12C)COC(=O)C3` [Scutebata E], the log is reported as 0.117.

Test system: HEK 293FT
Test: as above
Settings: 10 µM; time after transfection 48 h
Remark: another data set of the same source
`COc1cc(C(=O)NS(=O)(=O)c2ccccc2C)ccc1Cc1cn(C)c2ccc(NC(=O)OC3CCCC3)cc12` showed a log of -0.155.
`COc1cccc2c1C(=O)c1c(O)c3c(c(O)c1C2=O)C[C@@](O)(C(=O)CO)C[C@@H]3O[C@H]1C[C@H](N)[C@@H](O)[C@H](C)O1` was tested, and the log was -1.27.
In the case of `CCCCCCCCCCC[C@@H](C[C@@H]1OC(=O)[C@H]1CCCCCC)OC(=O)[C@H](CC(C)C)NC=O`, the log is reported as -1.33.
Work on `O=C1c2c(O)cc(O)cc2O[C@H](c2ccc(O)c(O)c2)[C@H]1O` yielded a log of -0.0635.
`COc1c(N2C[C@@H]3CCCN[C@@H]3C2)c(F)cc2c(=O)c(C(=O)O)cn(C3CC3)c12` showed a log of -0.12.
Compound `C[C@H]1C[C@H]2[C@@H]3CCC4=CC(=O)C=C[C@]4(C)[C@@]3(Cl)[C@@H](O)C[C@]2(C)[C@@]1(O)C(=O)CO` [Beclomethasone] has a log of 0.0825.
`CCCN[C@H]1CCc2nc(N)sc2C1` [Pramipexole] showed a log of 0.0127.
For `N[C@@H]1CONC1=O`, the log was 0.0603.
For `COCC1=C(C(=O)OC(C)OC(=O)OC(C)C)N2C(=O)[C@@H](NC(=O)/C(=N\OC)c3csc(N)n3)[C@H]2SC1` (stereo partly drawn), the log was 0.0785.
`CO[C@H]1/C=C/O[C@@]2(C)Oc3c(C)c(O)c4c(O)c(c(/C=N/N5CCN(C6CCCC6)CC5)c(O)c4c3C2=O)NC(=O)/C(C)=C\C=C\[C@H](C)[C@H](O)[C@@H](C)[C@@H](O)[C@@H](C)[C@H](OC(C)=O)[C@@H]1C` gave a log of -0.909.
Compound `Cc1nc(=O)c2cc(CN(C)c3ccc(C(=O)N[C@@H](CCC(=O)O)C(=O)O)s3)ccc2[nH]1` has a log of 0.0695.
`CC1CNc2c(cccc2S(=O)(=O)N[C@@H](CCCNC(=N)N)C(=O)N2CC[C@@H](C)C[C@@H]2C(=O)O)C1` (stereo partly drawn) showed a log of -0.0986.
`CC(Oc1c(Cl)cccc1Cl)C1=NCCN1` (stereo not drawn) was tested, and the log was 0.0618.
With `CN(C)CCCSc1ccccc1NC(=O)/C=C/c1ccccc1` [Cinanserin] the log was 0.112.
Compound `CC(=O)OCC(=O)NCCCOc1cccc(CN2CCCCC2)c1` has a log of -0.216.
Work on `CCCCCNC(=N)N/N=C/c1c[nH]c2ccc(OC)cc12` yielded a log of -0.447.
With `Cc1ncc([N+](=O)[O-])n1CC(C)O` (stereo not drawn) [1-(2-Methyl-5-nitro-imidazol-1-yl)-propan-2-ol] the log was -0.169.
`CN(C)CC[C@@H](c1ccc(Cl)cc1)c1ccccn1` was tested, and the log was 0.159.
Compound `CC(=O)O[C@H]1C[C@@H]2CC[C@@H]3[C@H](CC[C@@]4(C)[C@H]3C[C@H]([N+]3(C)CCCCC3)[C@@H]4OC(C)=O)[C@@]2(C)C[C@@H]1N1CCCCC1` has a log of -0.111.
